PubChem BioAssay AID686937, Drosophila RNAi Screening Center, 2013
Purpose: 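Genes whose loss weakens secretory pathway function in fly cells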 (primary screen). Cell system: Drosophila S2 cells expressing secreted horseradish peroxidase. Reagents: long dsRNA against Drosophila genes. Time to read-out: about 5.5 days (5 days dsRNA, then 12 h reporter induction). Challenge: reporter expression induced after 5 days of dsRNA, read 12 h later; inducer not stated. Detection: 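After 5 days of dsRNA and 12 h of reporter induction, medium peroxidase read by chemiluminescence and scored as per-plate z-score; higher values mean more reporter released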. Scale: z-score: higher = more reporter secreted into medium.
The deposit covers about 23,000 reagents; this is a random part of those that have a named target and a result. 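Reduced-secretion tags in replicate 1 do not always agree with the z-scores; no criterion for assigning the tags was given.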 The numbers tell different reagents against one gene apart. A plus sign joins genes that one reagent is predicted to hit. Further read-outs or replicates are left out here. The record does not give: the amount of reagent.

| predicted target | dsRNA no. | z-score, replicate 1 | z-score, replicate 2 | z-score, replicate 3 |
| --- | --- | --- | --- | --- |
| CR31427 | 1 | -0.07 | 0.22 | – |
| CG12446 | 1 | 0.42 | 0.13 | – |
| Opa1 | 1 | 0.43 | 0.51 | – |
| Mal-A3 | 1 | 0.04 | -0.02 | – |
| NAAT1 | 1 | 0.41 | 0.47 | – |
| CG34292 | 1 | 0.3 | -0.37 | – |
| hoka | 1 | 0.57 | 0.29 | – |
| shakB | 1 | 0.22 | 0.29 | – |
| shakB | 2 | 0.06 | -0.2 | 0.21 |
| shakB | 3 | 0.67 | 0.53 | – |
| shakB | 4 | -0.23 | 0.27 | – |
| shakB | 5 | 0.01 | 1.45 | – |
| shakB | 6 | -0.09 | -0.43 | – |
| CG7968 | 1 | 0.19 | 0.16 | – |
| Pep | 1 | 0.02 | 0 | – |
| CG32137 | 1 | 0 | -0.04 | – |
| CG32137 | 2 | -0.65 | -2.22 | – |
| Mdr49 | 1 | 0.03 | 0.24 | – |
| Obp57c | 1 | 0.38 | 0.43 | – |
| Tmem63 | 1 | 0.4 | 0.31 | – |
| CG13252 | 1 | 0.12 | -0.13 | – |
| CG13059 | 1 | 0.45 | 0.33 | – |
| Nepl5 | 1 | 0.19 | 0.27 | – |
| Mvb12 | 1 | 0.42 | 0.52 | – |
| CG18810 | 1 | 0.28 | 0.11 | – |
| CG13097 | 1 | -0.36 | 0.2 | – |
| SPoCk | 1 | 0.3 | 0.3 | – |
| SPoCk | 2 | 0.8 | 0.71 | – |
| SPoCk | 3 | 0.23 | 0.24 | – |
| SPoCk | 4 | 0.4 | 0.2 | – |
| CG3045 | 1 | 0.25 | 0.41 | – |
| CR43670 + grp + CR43671 + 1 more | 1 | 0.14 | 0.26 | – |
| Use1 | 1 | -2.12 | -0.88 | – |
| CG43373 | 1 | 0.38 | 0.12 | – |
| CG43373 | 2 | -0.04 | -0.14 | – |
| OS9 | 1 | 0.38 | 0.4 | – |
| Mesh1 | 1 | 0.48 | 0.34 | – |
| frm | 1 | 0.12 | 0.43 | -0.32 |
| Cyp4p3 | 1 | -0.03 | 0.3 | – |
| CG3198 | 1 | -0.25 | 0.39 | – |
| CHMP2B | 1 | 0.69 | 0.5 | – |
| nompA | 1 | 0.37 | 0.4 | – |
| htl | 1 | 0.35 | 0.37 | – |
| CG42747 | 1 | 0.48 | -0.7 | – |
| CG42747 | 2 | 0.55 | 0.38 | – |
| CG43244 | 1 | 0.55 | 0.27 | – |
| RYBP | 1 | 0.26 | 0.56 | – |
| CG9609 | 1 | 0.24 | 0.25 | – |
| CCDC151 | 1 | 0.3 | 0.28 | – |
| CG5246 | 1 | 0.22 | 0.2 | – |
| CG10650 | 1 | 0.33 | 0.13 | – |
| Ldh | 1 | 0.25 | 0.22 | – |
| MED11 | 1 | -5.67 | -5.96 | – |
| CG43253 (retired record) | 1 | 0.62 | 0.29 | – |
| aqrs | 1 | 0.47 | 0.33 | – |
| sr | 1 | 0.35 | -0.02 | – |
| sr | 2 | -3.43 | -2.84 | – |
| CG10738 | 1 | 0.47 | 0.46 | – |
| brn | 1 | 0.38 | 0.52 | – |
| CG13070 | 1 | 0.27 | 0.11 | – |
| Ugt37A2 | 1 | 0.05 | 0.25 | – |
| CG17648 | 1 | 0.19 | -0.05 | – |
| PolD3 | 1 | -0.01 | 0.15 | – |
| CG6026 | 1 | 0.45 | 0.6 | – |
| fat-spondin | 1 | 0.21 | 0.39 | – |
| CG13048 | 1 | 0.09 | 0.03 | – |
| CG12826 | 1 | 0.34 | 0.39 | – |
| Fam92 | 1 | 0.26 | 0.34 | – |
| LysP | 1 | 0.63 | 0.56 | – |
| CheB74a | 1 | 0.14 | 0.25 | – |
| armi | 1 | 0.28 | 0.25 | – |
| Pino | 1 | -5.7 | -1.1 | – |
| Pino | 2 | -0.34 | -0.3 | – |
| eIF4E6 | 1 | 0.32 | 0.4 | – |
| CG13029 | 1 | 0.27 | 0.15 | – |
| bcd | 1 | 0.36 | 0.37 | – |
| CG15019 | 1 | 0.18 | 0.44 | – |
| EbpII | 1 | 0.14 | 0.3 | – |
| EbpII | 2 | 0.01 | 0.04 | – |
| Cog6 | 1 | 0.32 | 0.23 | – |
| Ir21a + asRNA:CR43609 | 1 | 0.25 | 0.05 | – |
| CG33543 | 1 | 0.47 | 0.46 | – |
| CG33543 | 2 | 0.4 | 0.32 | – |
